{"source": "patent US8188063B2", "about": "“Use of adenosine A2A modulators to treat spinal cord injury” (University of Virginia Patent Foundation, priority 2006, dated 2012)", "test_system": "spinal cord compression injury, locomotor function", "assay": "Spinal cord compression injury, locomotor assessment (mBBB)", "conditions": "wild type mice, IP from 5 min before compression, twice daily 4 days, 6 nmol/kg; days 1-42; FIG. 2", "note": "At least one compound was matched to its structure with a doubt left.", "data": [{"smiles": "CCNC(=O)[C@H]1O[C@@H](n2cnc3c(N)nc(C#CCC4CCN(C(=O)OC)CC4)nc32)[C@H](O)[C@@H]1O", "note": "[ATL202, 4-{3-[6-amino-9-(5-ethyl-carbamoyl-3,4-dihydroxy-tetrahydro-furan-2-yl)-9H-purin-2-yl]-prop-2-ynyl}-piperidine-1-carboxylic acid methyl ester]", "values": [{"measurement": "locomotor function (mBBB score) after spinal cord compression", "value": "somewhat less protection"}]}]}
